# Measurements: PubChem BioAssay AID445 (National Center for Advancing Translational Sciences (NCATS), 2006)
# The list shows a part of the results. Shown are side measurements of this screen, not its main read-out; they come without a call. Compounds called inactive in the main read-out are mostly missing here. Potencies come from curve fits of mixed quality, noted in brackets.
# Test: IkB Signaling
# Conditions: ABC-DLBCL IkBa-CBG/CBR dual luciferase ratio (green luciferase fused to IkBa over red control in OCI-Ly3 lymphoma cells), 4 h
# Procedure, shortened: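 Luminescence ratio of IκBα-fused green versus native red beetle luciferase in OCI-Ly3 cells, 4 h post-doxycycline with compound; red signal alone, scaled from basal (0%) to zero light (-100%), flagged nonspecific or cytotoxic effects.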
# [1] = measured here: control luc red channel unless noted
# [2] = measured here: IkB-luc green channel
# [3] = measured here: control luc red channel
smiles,measurement,setting,value
COc1ccc(-c2onc(C)c2C)cc1S(=O)(=O)N1CCC(C)CC1,AC50,[1],"39.8 µM [falling, single point]"
COc1ccccc1CCNC(=O)c1cccn1-c1nnc(N2CCCCC2)s1,AC50,[1],"25.1 µM [falling, single point]"
CCOc1ccccc1NC(=O)CSc1cc(=O)n(CC)c2ccccc12,AC50,[1],"39.8 µM [falling, single point]"
O=c1n(CC2CO2)c(=O)n(CC2CO2)c(=O)n1CC1CO1 (stereo not drawn),AC50,[1],"31.6 µM [rising, partial curve] [measured here: IkB-luc green channel]"
Cc1cccc2sc(N3CCN(C(=O)c4ccco4)CC3)nc12,AC50,[1],"3.16 µM [rising, partial curve]"
FC(F)(F)c1cc(CO[C@H]2CCCN[C@H]2c2ccccc2)cc(C(F)(F)F)c1,AC50,[1],"39.8 µM [falling, partial curve]"
Cc1cc(NC(=O)C2CCCN(S(=O)(=O)c3cccc4nonc34)C2)ccc1Br (stereo not drawn),AC50,[1],"39.8 µM [falling, single point]"
COc1ccc(OC)c(CNCc2c(C(=O)O)n(Cc3ccccc3)c3cc(OC)ccc23)c1,AC50,[1],"10 µM [falling, partial curve]"
COc1ccc2nc(NC(=O)c3cnccn3)sc2c1,AC50,[1],"2.51 µM [falling, full curve]"
O=C1Nc2ccccc2Oc2cc(Oc3ccc(Cl)cc3)ccc21,AC50,[1],"0.631 µM [falling, full curve, poor fit]"
CCC(=O)N1CCc2cc(S(=O)(=O)NC(CC(C)C)C(=O)Nc3ccc(CC)cc3)ccc21 (stereo not drawn),AC50,[1],"15.8 µM [falling, partial curve]"
CCOC(=O)c1ccc(NC(=O)C2CCCN(c3ncnc4onc(C)c34)C2)cc1 (stereo not drawn),AC50,[1],"39.8 µM [falling, single point]"
COc1cccc(-c2nc(CS(=O)CC(=O)NCc3ccc4c(c3)OCO4)c(C)o2)c1 (stereo not drawn),AC50,[1],"12.6 µM [falling, partial curve]"
COc1ccc(NC(=O)N2CCN(c3nc(-c4cccc(OC)c4)cs3)CC2)cc1,AC50,[2],"31.6 µM [falling, partial curve]"
same,AC50,[3],"15.8 µM [falling, partial curve]"
CCc1ccc(-c2nc(SCC(=O)NCCOC)c(-c3ccc(C)cc3)[nH]2)cc1,AC50,[1],"20 µM [falling, partial curve, poor fit]"
CCc1ccc(CNc2nc3nc(C)c(Cc4ccccc4)c(=O)n3[nH]2)cc1,AC50,[1],"20 µM [falling, single point]"
CCc1ccc(CN2CCc3nc(Nc4ccc5c(c4)OCCO5)ncc3C2)cc1,AC50,[1],"25.1 µM [falling, single point]"
CC(=O)c1cccc(NC(=O)C2=CC(c3ccco3)=NS(=O)(=O)N2C)c1,AC50,[1],"25.1 µM [falling, single point]"
COc1ccc(Nc2nnc(-c3ccc(C)c(S(N)(=O)=O)c3)c3ccccc23)cc1,AC50,[1],"10 µM [falling, partial curve]"
COc1ccc(CCNc2oc(COc3ccc(Cl)cc3)nc2C#N)cc1OC,AC50,[1],"12.6 µM [falling, partial curve]"
CCc1ccc2nc(N3CCN(C(=O)c4ccco4)CC3)sc2c1,AC50,[1],"2 µM [rising, partial curve]"
COc1ccc(Cl)cc1N(C)C(=O)Cn1cnc2sc(C)c(S(=O)(=O)N3CCN(c4ncccn4)CC3)c2c1=O,AC50,[1],"25.1 µM [falling, partial curve, poor fit]"
Cc1ccc(C)c(CN2C(=O)c3ccccc3S(=O)(=O)c3ccc(C(=O)N4CCOCC4)cc32)c1,AC50,[1],"0.631 µM [falling, full curve]"
CCC(=O)c1cc(F)c(N2CCN(C(=O)Cc3ccccc3)CC2)cc1C,AC50,[1],"12.6 µM [falling, partial curve]"
Cn1c(=O)c2c(nc(NC3CCCCC3)n2Cc2ccccc2)n(C)c1=O,AC50,[1],"12.6 µM [falling, partial curve]"
CCOc1ccccc1CNC(=O)CCCN1C(=O)CCn2nc(-c3cccn3C)cc21,AC50,[1],"39.8 µM [falling, single point]"
Cc1ccc(CNC(=O)C2CCN(S(=O)(=O)c3ccc4c(c3)oc(=O)n4C)CC2)cc1,AC50,[1],"3.16 µM [falling, partial curve, poor fit]"
COc1ccccc1C1=Nn2c(nnc2C2CCCCC2)SC1,AC50,[1],"15.8 µM [falling, partial curve]"
Cn1c2ccccc2c2ncn(CCC3=CCCCC3)c(=O)c21,AC50,[1],"25.1 µM [falling, single point]"
CCOC(=O)c1c(C)[nH]c(C)c1S(=O)(=O)N1CCCC(C(=O)N2CCN(c3cc(C)ccc3C)CC2)C1 (stereo not drawn),AC50,[1],"3.16 µM [falling, single point]"
CCCCNC(=O)C(CC)Sc1nnc(-c2ccc(OC)c(OC)c2)c(-c2ccc(OC)c(OC)c2)n1 (stereo not drawn),AC50,[1],"2 µM [rising, partial curve]"
Cc1ccc(-c2ccc(=O)n(C(C)C(=O)Nc3ccccc3Cl)n2)cc1C (stereo not drawn),AC50,[1],"39.8 µM [falling, single point]"
CC1CCc2nc3ncn(CC(=O)Nc4cccc(C#N)c4)c(=O)c3cc2C1 (stereo not drawn),AC50,[1],"0.0631 µM [falling, full curve, poor fit]"
COc1ccc(S(=O)(=O)N(CC(=O)N2CCC(C)CC2)c2ccc(C)cc2)cc1,AC50,[1],"31.6 µM [falling, single point]"
CCOC(=O)Cc1csc(NC(=O)COc2ccccc2OC)n1,AC50,[1],"12.6 µM [falling, partial curve]"
CCc1ccccc1Nc1nn2c(=O)c3ccc(C(=O)Nc4cc(C)cc(C)c4)cc3nc2s1,AC50,[1],"39.8 µM [falling, single point]"
Cc1occc1-c1nnc(SCC(=O)NCCc2ccccc2)n1Cc1ccccc1,AC50,[1],"31.6 µM [falling, single point]"
CCOC(=O)c1cccc(NC(=O)CCCn2c(C)c3cnn(-c4ccccc4)c(=O)c3c2C)c1,AC50,[1],"25.1 µM [falling, partial curve]"
COc1cc(C2CC(=O)Nc3c2c(=O)n(C)c(=O)n3C)cc(OC)c1OC (stereo not drawn),AC50,[1],"31.6 µM [rising, single point]"
CCCCn1c(CNC(=O)c2ccc(OC)cc2)nnc1SCC(=O)Nc1ccccc1,AC50,[1],"25.1 µM [falling, single point]"
CC(=O)N1CCN(S(=O)(=O)c2cccc(C(=O)Nc3nc4ccccc4[nH]3)c2)CC1,AC50,[1],"31.6 µM [falling, partial curve]"
Cc1ccc(CNC(=O)CCC(=O)N2CC(C)Sc3ccccc32)cc1 (stereo not drawn),AC50,[1],"15.8 µM [falling, single point]"
Cc1ccc(NC(=O)c2cc3c(=O)[nH]c4ccccc4c3n2C)cc1F,AC50,[1],"5.01 µM [rising, partial curve]"
S=c1nc2ccccc2c2nc(-c3ccccc3)[nH]n12,AC50,[2],"10 µM [rising, partial curve]"
same,AC50,[3],"25.1 µM [falling, single point]"
CC(C)N(C(=O)Cn1cc(S(=O)(=O)Cc2ccc(C(F)(F)F)cc2)c2ccccc21)C(C)C,AC50,[1],"31.6 µM [falling, single point]"
CCC(=O)O[C@@]1(C(=O)SCF)[C@@H](C)C[C@H]2[C@@H]3C[C@@H](F)C4=CC(=O)C=C[C@@]4(C)[C@]3(F)[C@@H](O)C[C@]21C,AC50,[1],"158 nM [rising, full curve] [measured here: IkB-luc green channel]"
COc1ccc2c(Sc3ccc(Cl)cc3)c(C(=O)NCCCN3CCCCC3)[nH]c2c1,AC50,[1],"12.6 µM [falling, partial curve]"
Cc1cccc(NC(=O)CSc2nc3c([nH]c4ccccc43)c(=O)n2C)c1,AC50,[1],"0.251 µM [falling, full curve]"
Cc1ccc(CN(C(=O)COc2ccc(C)c(C)c2)C2CCS(=O)(=O)C2)o1 (stereo not drawn),AC50,[1],"20 µM [falling, partial curve]"
COc1ccc(S(=O)(=O)Nc2cc(-c3cn4ccccc4n3)ccc2C)cc1,AC50,[1],"0.2 µM [rising, full curve]"
COc1ccc(OCc2nnc(-c3ccccc3)o2)cc1,AC50,[1],"0.0398 µM [rising, full curve, poor fit]"
Cc1nn(C)c2c1c(C(F)(F)F)cc(=O)n2CC(=O)NCc1ccccc1Cl,AC50,[1],"15.8 µM [falling, single point]"
Cc1cc(F)ccc1NC(=O)c1sc2nc(-c3cccs3)ccc2c1N,AC50,[1],"5.01 µM [falling, full curve]"
CCOc1ccccc1NC(=O)C(C)Sc1nc2c(c(=O)[nH]1)CCCC2 (stereo not drawn),AC50,[1],"12.6 µM [falling, single point]"
CC(C)OCCCN1C(=O)c2[nH]nc(-c3ccccc3O)c2C1c1ccc(OCc2ccccc2)cc1 (stereo not drawn),AC50,[1],"15.8 µM [falling, partial curve]"
Cc1ccc(CC(=O)Nc2c(C(=O)N3CCN(c4ccccc4F)CC3)oc3ccccc23)cc1,AC50,[1],"25.1 µM [falling, single point]"
Cc1ccc(NS(=O)(=O)c2ccc3c(c2)NC(=O)CCS3)c(Br)c1,AC50,[1],"3.16 µM [falling, single point]"
CCOCCCNC(=O)CCc1nnc2ccc(N3CCN(c4cccc(OC)c4)CC3)nn12,AC50,[1],"25.1 µM [falling, partial curve, poor fit]"
CCn1nc(-c2ccccc2)c(-c2ccccc2)c(C(=O)OCCOC)c1=O,AC50,[1],"0.2 µM [rising, partial curve]"
Cc1oc(-c2ccccc2)nc1CNC(=O)Nc1ccccc1,AC50,[1],"31.6 µM [falling, single point]"
CC1=C(C(=O)OCC2CCCCC2)C(c2c(F)cccc2Cl)CC(=O)N1 (stereo not drawn),AC50,[1],"3.16 µM [falling, partial curve, poor fit]"

# As a working copy, some entries already given:
smiles,measurement,setting,value
COc1ccc(S(=O)(=O)N(CC(=O)N2CCC(C)CC2)c2ccc(C)cc2)cc1,AC50,[1],"31.6 µM [falling, single point]"
CCOC(=O)Cc1csc(NC(=O)COc2ccccc2OC)n1,AC50,[1],"12.6 µM [falling, partial curve]"
CCc1ccccc1Nc1nn2c(=O)c3ccc(C(=O)Nc4cc(C)cc(C)c4)cc3nc2s1,AC50,[1],"39.8 µM [falling, single point]"
Cc1occc1-c1nnc(SCC(=O)NCCc2ccccc2)n1Cc1ccccc1,AC50,[1],"31.6 µM [falling, single point]"
CCOC(=O)c1cccc(NC(=O)CCCn2c(C)c3cnn(-c4ccccc4)c(=O)c3c2C)c1,AC50,[1],"25.1 µM [falling, partial curve]"
COc1cc(C2CC(=O)Nc3c2c(=O)n(C)c(=O)n3C)cc(OC)c1OC (stereo not drawn),AC50,[1],"31.6 µM [rising, single point]"
CCCCn1c(CNC(=O)c2ccc(OC)cc2)nnc1SCC(=O)Nc1ccccc1,AC50,[1],"25.1 µM [falling, single point]"
CC(=O)N1CCN(S(=O)(=O)c2cccc(C(=O)Nc3nc4ccccc4[nH]3)c2)CC1,AC50,[1],"31.6 µM [falling, partial curve]"
Cc1ccc(CNC(=O)CCC(=O)N2CC(C)Sc3ccccc32)cc1 (stereo not drawn),AC50,[1],"15.8 µM [falling, single point]"
Cc1ccc(NC(=O)c2cc3c(=O)[nH]c4ccccc4c3n2C)cc1F,AC50,[1],"5.01 µM [rising, partial curve]"
S=c1nc2ccccc2c2nc(-c3ccccc3)[nH]n12,AC50,[2],"10 µM [rising, partial curve]"
same,AC50,[3],"25.1 µM [falling, single point]"
CC(C)N(C(=O)Cn1cc(S(=O)(=O)Cc2ccc(C(F)(F)F)cc2)c2ccccc21)C(C)C,AC50,[1],"31.6 µM [falling, single point]"
CCC(=O)O[C@@]1(C(=O)SCF)[C@@H](C)C[C@H]2[C@@H]3C[C@@H](F)C4=CC(=O)C=C[C@@]4(C)[C@]3(F)[C@@H](O)C[C@]21C,AC50,[1],"158 nM [rising, full curve] [measured here: IkB-luc green channel]"
